At least one compound was matched to its structure with a doubt left.
What was measured:
[1] = system: MED1, BRD4, SRSF2, HP1α, FIB1, and NPM1 condensates; test: In vitro droplet assay with six nuclear condensates; assay type: binding, human; details: 125 mM NaCl and 10% PEG
[2] = Droplet formation assay of small molecule alone without any protein; assay type: physicochemical; details: without any protein added
Description: Recombinant BFP, GFP, or mCherry fusion proteins were concentrated and desalted to an appropriate protein concentration and 125 mM NaCl using Amicon Ultra centrifugal filters (30K MWCO, Millipore). […] […] The protein solution was immediately loaded onto glass bottom 384 well plate (Cellvis P384-1.5H-N) and imaged with an Andor confocal microscope with a 150× objective. Unless indicated, images presented are of droplets settled on the glass coverslip.

[3] = system: MED1, BRD4, and POL2 condensates in HCT116 colon cancer cell lines; test: Small molecule effects on transcriptional condensates in GFP-tagged HCT116 cells; assay type: cell-based, human
Source text: HCT116 colon cancer cell lines endogenously tagged with MED1-GFP, BRD4-GFP, POL2-GFP, or HP1a-GFP (Mock), all forming condensates in the nucleus.

O=C1OC2(c3ccc(O)cc3Oc3cc(O)ccc32)c2ccccc21 [Fluorescein]
behavior relative to six nuclear condensates formed in vitro [1]: without substantial partitioning
droplet formation of small molecule alone [2]: diffuse fluorescent signal

CC(=O)c1c(C)c2cnc(Nc3ccc(N4CCNCC4)cn3)nc2n(C2CCCC2)c1=O [Palbociclib]
effect on transcriptional condensates [3]: genomic release and consolidation of condensates

From patent US20220390432A1, “METHODS OF CHARACTERIZING AND UTILIZING AGENT-CONDENSATE INTERACTIONS” (Whitehead Institute for Biomedical Research, priority 2019, published 2022)
